Taken from: PubChem BioAssay AID504774 (Drosophila RNAi Screening Center, 2011)
The screen tested about 23,000 reagents; shown is a random part of those with a known target gene and a result. 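Values are quantile-normalised luminescence on an arbitrary scale; higher means more cells surviving MMS.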 The numbers tell different reagents against one gene apart. A plus sign joins genes that one reagent is predicted to hit. Not all columns of the deposit are shown.

- Screen: 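Knock-downs that shift viability of MMS-exposed cells relative to untreated ones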 (primary screen)
- System: Drosophila Kc167 cells
- Reagent: long dsRNA against Drosophila genes, about 0.25 µg dsRNA per well
- Time to read-out: about 6 days: 3 days knock-down, then 3 days with or without MMS
- Challenge: methyl methanesulphonate 0.004% (w/v) for 3 days after knock-down
- Read-out: 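ATP-dependent luminescence as a measure of live cells in MMS-exposed wells, quantile normalised within each plate, with replicate values also given as a mean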
- Scale: mean viability with MMS and viability with MMS: higher = more surviving cells after MMS

For mv (mauve) #1, the values are mean viability with MMS 3.44e6; viability with MMS, replicate 1 = 3.90e6. After knock-down of mv (mauve) #2, the screen gave mean viability with MMS 3.53e6; viability with MMS, replicate 1 = 3.99e6. polybromo showed mean viability with MMS 3.57e6; viability with MMS, replicate 1 = 4.07e6. Against awd (abnormal wing discs), the values are mean viability with MMS 3.62e6; viability with MMS, replicate 1 = 4.05e6. Silencing of eco (Establishment of cohesion) gave: mean viability with MMS 3.38e6; viability with MMS, replicate 1 = 3.93e6. For Trim9 (Tripartite motif containing 9), the entry reads mean viability with MMS 3.40e6; viability with MMS, replicate 1 = 3.74e6.

Knock-down of CG14017 gave: mean viability with MMS 3.54e6; viability with MMS, replicate 1 = 3.96e6. Silencing of Fibp came out at: mean viability with MMS 3.70e6; viability with MMS, replicate 1 = 4.15e6. Depletion of twin #1 resulted in: mean viability with MMS 3.82e6; viability with MMS, replicate 1 = 4.33e6. For twin #2, the entry reads mean viability with MMS 3.75e6; viability with MMS, replicate 1 = 4.24e6. After knock-down of twin #3, the record shows mean viability with MMS 3.85e6; viability with MMS, replicate 1 = 4.39e6. CG5645 scored mean viability with MMS 3.35e6; viability with MMS, replicate 1 = 3.73e6.

Depletion of Polr2E (RNA polymerase II, I and III subunit E) gave: mean viability with MMS 2.66e6; viability with MMS, replicate 1 = 3.57e6.

Entries listed so far whose gene name begins with M or m:
mv (mauve) #1 — mean viability with MMS: 3.44e6; viability with MMS, replicate 1: 3.90e6
mv (mauve) #2 — mean viability with MMS: 3.53e6; viability with MMS, replicate 1: 3.99e6

Additional reagents follow:
CG5335 showed mean viability with MMS 3.45e6; viability with MMS, replicate 1 = 3.89e6. For IntS11 (Integrator 11) the deposit lists mean viability with MMS 3.39e6; viability with MMS, replicate 1 = 3.93e6. CG6023 showed mean viability with MMS 3.63e6; viability with MMS, replicate 1 = 4.20e6. Against Lhr (Lethal hybrid rescue), the values are mean viability with MMS 3.60e6; viability with MMS, replicate 1 = 4.07e6. Depletion of CG42813 + CG42814 #1 came out at: mean viability with MMS 3.59e6; viability with MMS, replicate 1 = 4.08e6. CG42813 + CG42814 #2 showed mean viability with MMS 3.59e6; viability with MMS, replicate 1 = 4.13e6.

After knock-down of ms(3)76Cc (male sterile (3) 76Cc) #1, the screen gave mean viability with MMS 3.81e6; viability with MMS, replicate 1 = 4.26e6. Against ms(3)76Cc (male sterile (3) 76Cc) #2, the values are mean viability with MMS 3.46e6; viability with MMS, replicate 1 = 3.94e6. CG32204 showed mean viability with MMS 3.44e6; viability with MMS, replicate 1 = 4.04e6. Depletion of CG4982 resulted in: mean viability with MMS 1.71e6; viability with MMS, replicate 1 = 3.84e6. Against Mpc1, the values are mean viability with MMS 3.55e6; viability with MMS, replicate 1 = 4.02e6.
